Assay results from patent US9549928B2, “Muscarinic agonists as enhancers of cognitive flexibility” (THE UNIVERSITY OF TOLEDO, priority 2011, dated 2017).
For at least one compound, name, drawing or mass did not settle the structure.

Legend:
[1] = system: normal rats; assay: Example 2: attentional set-shifting model, visual cue strategy shifted to place strategy; format: in vivo, rat
Source text: The whole experiment was repeated with the rats learning first a visual cue strategy and then being switched to a place strategy.

[2] = system: normal rats; assay: Example 2: attentional set-shifting model, place strategy shifted to visual cue strategy; format: in vivo, rat
Source text: The beneficial effects of CDD-0102A in the rat model of cognitive flexibility are among the strongest evidence providing the scientific rationale for CDD-0102A in the treatment of PSP. The inventors have developed several models of cognitive flexibility, including the model of attentional set shifting involving an extradimensional set shift described here. The model involves a place-visual cue task. Rats first learned to use a place strategy—always to enter the same arm to receive a food reward. Criterion was set at 10 consecutive correct trials. The following day, rats had to inhibit the place strategy and to learn a new visual cue strategy to receive the reward. Local visual cues in the maze arms included a black board in one arm and white board in the other arm. The cues were switched between the choice arms randomly across trials so the same cue was not always in the same location. The rat had to choose the arm that contained a particular color cue (e.g., black) in order to receive the reward. The criterion again was set at 10 consecutive correct trials.
Rats received either saline (N=3) or CDD-0102A at various doses 30 minutes prior to testing.

[3] = target: T1, M1 muscarinic receptor (Homo sapiens, UniProt P11229); assay: Maximal responses at muscarinic receptor subtypes, as percentage of maximal carbachol response; format: biochemical; settings: relative to maximal carbachol response, FIG. 1
T1 sequence (P11229 1-460): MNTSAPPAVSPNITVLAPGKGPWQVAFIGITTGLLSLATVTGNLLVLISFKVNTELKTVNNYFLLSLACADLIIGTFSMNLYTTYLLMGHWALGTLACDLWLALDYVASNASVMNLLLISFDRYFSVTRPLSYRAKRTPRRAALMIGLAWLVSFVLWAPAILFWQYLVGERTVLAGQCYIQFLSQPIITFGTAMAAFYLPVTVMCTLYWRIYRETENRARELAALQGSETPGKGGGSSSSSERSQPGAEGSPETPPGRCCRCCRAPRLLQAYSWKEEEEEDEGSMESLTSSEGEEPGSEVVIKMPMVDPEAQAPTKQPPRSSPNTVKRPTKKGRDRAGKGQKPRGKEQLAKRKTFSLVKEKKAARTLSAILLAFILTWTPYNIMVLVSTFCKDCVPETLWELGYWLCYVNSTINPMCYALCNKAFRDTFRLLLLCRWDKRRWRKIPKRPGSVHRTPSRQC

[4] = system: other muscarinic receptor subtypes (M2, M3, M4, M5); assay: as above; format: biochemical; settings: relative to maximal carbachol response, FIG. 1
[5] = system: NGF-differentiated PC12 cells; assay: Apoptosis in NGF-differentiated PC12 cells induced by staurosporine or Aβ; format: cell-based
[6] = system: male Long-Evans rats; assay: Place discrimination acquisition and switch to visual cue discrimination (strategy switching); format: in vivo, rat; settings: for trials to criterion, switch to visual cue discrimination / regressive errors, switch to visual cue discrimination: P<0.01
Protocol: A different group of rats was used for the discrimination learning and strategy switching tests from that used in the delayed spontaneous alternation test. Prior to testing, rats were food-restricted to maintain their weight at 85% of their free-feed weight, handled and trained in the maze to obtain half piece of Froot Loops® cereal in the cross-maze.
Following training, each rat was tested across two consecutive days. In the first experiment each rat had to learn a place discrimination. Rats were started in a pseudorandom manner from one of two different arms such that any start arm was not used more than 3 consecutive trials. The two start arms (“east” and “west”) were always opposite each other. A black plastic block was placed in the entrance of the maze arm opposite to that of the start arm, giving the maze a T-shape. Thus, the same two choice arms were used no matter what start arm was used. A rat was started in the stem arm with only one of the two choice arms baited. In the acquisition phase, one choice arm or place was designated the reinforced arm which contained a ½ piece of cereal reinforcement on each trial. In this phase, a rat was required to enter the reinforced arm containing a ½ piece of cereal. If a rat chose the correct arm, the trial was terminated after a rat consumed the cereal piece. If a rat chose the incorrect arm, the trial was terminated after a rat reached the unbaited food well. Black and white visual cues that lined the base and side walls of the choice arms were assigned on a pseudorandom basis to be on the left or right of the start arm so that they occurred in each start arm an equal number of times in blocks of 12 trials. Between trials, the maze, visual cues, and block were wiped down with 2% Quatricide® solution to minimize the animals' ability to use odor cues for discriminations. Between trials, a rat was placed in a holding chamber which was placed on a table next to the maze. The maze was then wiped down and re-baited if necessary. The inter-trial interval was approximately 15 seconds. To minimize the use of intramaze cues the maze was rotated 90° every fourth trial. The criterion for acquisition of the place discrimination was 10 consecutive correct trials.
The day following the acquisition phase, each rat was tested on the switch to the visual cue strategy. In the switch phase, a rat was required to switch strategies from always entering a choice arm based on spatial location to entering a choice arm based on visual cue (black or white). Again, the visual cues were switched in a pseudorandom manner between choice arms so that a particular cue was associated with the same choice arm for a maximum of three consecutive trials and was equally associated with each turn direction across consecutive blocks of 12 trials. The learning criterion in the switch phase was also 10 consecutive correct arm choices. Thirty minutes prior to each test phase, rats received an i.p. injection of the designated treatment for that phase. The rats were divided into the following groups: 1) saline—saline (n=9); 2) saline—CDD-0102A 0.003 mg/kg (n=7); 3) saline—CDD-0102A 0.03 mg/kg (n=9); 4) vehicle—CDD-0102A 0.1 mg/kg (n=8); 5) CDD-0102A 0.03 mg/kg-saline (n=8); or 6) CDD-0102A 0.01 mg/kg-saline (n=7).
In the switch phase of each experiment, the errors committed were separated into different categories and analyzed. The errors were separated into perseverative, regressive and never-reinforced errors. In the place acquisition and shift to visual cue experiment, for half the trials a rat had to enter the arm that was in the opposite place as the arm that was reinforced in the place acquisition phase. For example, a rat might have to learn to always enter the “north” arm in the place acquisition phase. In the shift to visual cue phase, a rat now had to always enter the arm with the black visual cue. […]

[7] = 0.03 mg/kg or greater dose before the switch
[8] = apoptosis induced with staurosporine or Aβ

CCc1noc(C2CN=CNC2)n1 (stereo not drawn) [CDD-0102A, 5-(3-ethyl-1,2,4-oxadiazol-5-yl)-1,4,5,6-tetrahydropyrimidine]
number of trials to criterion, shift from visual cue task to place cue task ([1]; 0.03 mg/kg dosed before the shift (FIG. 8B)): decreased | trials to achieve criterion after switch, compared to controls [1, 7]: about half the trials | number of trials to criterion, shift from visual cue task to place cue task ([1]; 0.1 mg/kg dosed before the shift (FIG. 8B)): decreased | number of trials to criterion, shift from place cue task to visual cue task ([2]; 0.03 mg/kg dosed before the shift (FIG. 7B)): decreased | trials to achieve criterion after switch, compared to controls [2, 7]: about half the trials | number of trials to criterion, shift from place cue task to visual cue task ([2]; 0.1 mg/kg dosed before the shift (FIG. 7B)): decreased | number of perseveration errors in attentional set shift ([2]; further analysis, Example 2): reduced | number of regressive errors in attentional set shift ([2]; further analysis, Example 2): reduced | agonist activity at M1 muscarinic receptor (maximal response) [3]: partial M1 muscarinic agonist | activity at other muscarinic receptor subtypes (maximal response) [4]: low activity | protection of PC12 cells from apoptosis ([5]; 1 mM CDD-0102A, 1 μM Aβ (FIG. 12)): protects | cleaved caspase-3 levels ([5]; apoptosis induced with Aβ): significantly reversed | cleaved caspase-3 levels ([5]; apoptosis induced with staurosporine): significantly reversed | DNA damage (fluorescence microscopy) [5, 8]: significantly reversed | neuronal viability [5, 8]: significantly reversed | trials to criterion, switch to visual cue discrimination ([6]; 0.03 mg/kg i.p. 30 minutes before switch phase): significantly decreased | regressive errors, switch to visual cue discrimination ([6]; 0.03 mg/kg i.p.): significantly lessened | never-reinforced errors, switch to visual cue discrimination ([6]; 0.03 mg/kg i.p., P<0.05 vs SAL-SAL): significantly decreased | perseverative errors, switch to visual cue discrimination ([6]; 0.03 mg/kg i.p., P<0.05 vs saline): significantly reduced | trials to criterion, switch to visual cue discrimination ([6]; 0.1 mg/kg i.p. 30 minutes before switch phase): significantly decreased | regressive errors, switch to visual cue discrimination ([6]; 0.1 mg/kg i.p.): significantly lessened | never-reinforced errors, switch to visual cue discrimination ([6]; 0.1 mg/kg i.p., P<0.01 vs SAL-SAL): significantly decreased | perseverative errors, switch to visual cue discrimination ([6]; 0.1 mg/kg i.p., P<0.01 vs saline): significantly reduced | trials to criterion, acquisition of place discrimination ([6]; 0.03 or 0.1 mg/kg i.p. 30 minutes prior to acquisition, vs saline): did not affect learning
